In PMC9106352:
No constants are given. Whether binding was seen depends on the method and setting. Binding seen in cells or lysates may run through a third protein. Some results given as binding are weak or reduced against the parent protein; the word gives no strength.

Amino acid sequences for entries named in this document (tags omitted). Residues count along the entry.
UniProt P56480, residues 47-529: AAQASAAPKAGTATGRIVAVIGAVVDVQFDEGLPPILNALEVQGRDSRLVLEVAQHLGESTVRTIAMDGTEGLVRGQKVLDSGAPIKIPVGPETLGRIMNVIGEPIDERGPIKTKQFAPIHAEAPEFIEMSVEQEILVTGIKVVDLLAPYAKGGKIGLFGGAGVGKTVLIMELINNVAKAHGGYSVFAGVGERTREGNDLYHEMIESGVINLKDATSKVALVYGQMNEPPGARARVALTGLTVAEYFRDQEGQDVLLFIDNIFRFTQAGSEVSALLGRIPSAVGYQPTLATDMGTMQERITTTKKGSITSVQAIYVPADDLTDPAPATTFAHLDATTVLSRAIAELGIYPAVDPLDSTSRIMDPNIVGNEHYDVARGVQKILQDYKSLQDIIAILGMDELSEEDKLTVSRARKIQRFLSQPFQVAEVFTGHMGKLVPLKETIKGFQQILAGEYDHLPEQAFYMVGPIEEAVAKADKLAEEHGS
UniProt Q03265, residues 44-553: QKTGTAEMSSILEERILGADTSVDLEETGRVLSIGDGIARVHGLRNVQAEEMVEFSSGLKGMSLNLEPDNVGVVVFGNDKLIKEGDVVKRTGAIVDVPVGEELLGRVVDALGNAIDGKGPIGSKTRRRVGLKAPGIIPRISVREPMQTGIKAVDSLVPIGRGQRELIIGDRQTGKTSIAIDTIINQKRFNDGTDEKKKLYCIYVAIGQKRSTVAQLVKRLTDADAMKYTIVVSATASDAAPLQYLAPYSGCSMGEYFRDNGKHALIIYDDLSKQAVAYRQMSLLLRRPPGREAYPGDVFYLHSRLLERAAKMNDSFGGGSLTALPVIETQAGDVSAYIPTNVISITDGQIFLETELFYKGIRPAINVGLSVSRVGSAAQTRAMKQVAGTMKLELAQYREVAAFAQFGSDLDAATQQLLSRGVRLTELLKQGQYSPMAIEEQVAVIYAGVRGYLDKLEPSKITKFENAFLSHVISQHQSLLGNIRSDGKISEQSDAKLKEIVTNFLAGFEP

What was measured:
Experiment in all cases: cross-linking; isobaric quantitative PIR cross-linker GG-BDP-NHP (10 mM) added to minced heart tissue of 5 TAC and 5 sham-operated mice in 170 mM Na2HPO4 pH 8.0, 30 min, room temperature; mitochondria then isolated, digested, cross-linked peptides enriched on avidin and identified by LC-MS/MS; links mapped on PDB 6j5k
[1] = target: FoF1-ATP synthase β subunit (ATPB) (mouse (endogenous in mouse heart)) (UniProt P56480)
[2] = target: ATPase inhibitory factor 1 (ATPIF1) (mouse (endogenous in mouse heart)) (UniProt O35143)
[3] = target: FoF1-ATP synthase α subunit (ATPA) (mouse (endogenous in mouse heart)) (UniProt Q03265)

- binding [1]: binds
- binding [2]: binds
- binding [3]: binds
B1: ATPase inhibitory factor 1 (ATPIF1) (protein, UniProt O35143 26-106)
chain: VSDSSDSMDTGAGSIREAGGAFGKREKAEEDRYFREKTKEQLAALRKHHEDEIDHHSKEIERLQKQIERHKKKIQQLKNNH
